Measurements published in patent US20150166646A1, “Methods and Compositions for Treating or Diagnosing Melanoma” (The Wistar Institute of Anatomy and Biology, priority 2012, published 2015).
At least one structure is not confirmed: it was looked up by name or label, or the drawing left a doubt.

Columns and labels:
macrophages = assay: Macrophage growth (WST-1) and cell death; format: cell-based, human; conditions: 3 μM PLX4720, 0.5 μM Trametinib, 3 days
[1] = test system: MAPK pathway in macrophages; assay: Immunoblotting of MAPK signaling in macrophages; format: cell-based, human; conditions: 1 μM PLX4720, 0.5 μM Trametinib, 2 hours
Protocol: For macrophages, after monocytes were differentiated to the macrophages, cells in 2% FBS melanoma media were seeded into 15 ml tubes. […] Immunoblotting were performed as described previously. The following antibodies were used: anti-phospho-ERK, ERK, Phospho-VEGFR1, phospho-CRAF, CRAF, PCNA, HSP90 and Rab11.
Cells were harvested for immunoblotting of antibodies to pERK (short expression), pERK, ERK, pCRAF (S338), CRAF, and Rab11 as shown in FIG. 11A. An ELISA assay was performed to determine the activation of RAS in 3 macrophage donors and the melanoma cells A375 and 1205Lu. As see in FIG. 11B, macrophages have high basal level of RAS activation.

[2] = test system: VEGF production in macrophages; assay: Intracellular staining for VEGF production in macrophages; conditions: PLX4720 plus Trametinib, 4 hours

## CC(=O)Nc1cccc(-n2c(=O)n(C3CC3)c(=O)c3c(Nc4ccc(I)cc4F)n(C)c(=O)c(C)c32)c1 [Trametinib]
macrophages
  PLX4720-induced macrophage proliferation and anti-cell death effects: inhibited
[1]
  PLX4720-induced ERK activation and PCNA expression in macrophages: abolished
[2]
  PLX4720-induced production of VEGF in macrophages: abolished these effects
